{"source": "PubChem BioAssay AID686937 (Drosophila RNAi Screening Center, 2013)", "test": "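Knock-downs that reduce output of a secreted reporter enzyme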 (primary screen)", "system": "Drosophila S2 cells expressing secreted horseradish peroxidase", "reagent": "long dsRNA against Drosophila genes", "duration": "about 5.5 days (5 days dsRNA, then 12 h reporter induction)", "challenge": "reporter expression induced after 5 days of dsRNA, read 12 h later; inducer not stated", "measurement": "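Chemiluminescent measurement of peroxidase in the medium 12 h after reporter induction, following 5 days of dsRNA, given as a z-score per plate; higher means more secretion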", "direction": "z-score: higher = more reporter secreted into medium", "note": "The deposit covers about 23,000 reagents; below is an unselected part of those that have a named target and a result. 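Reduced-secretion tags in replicate 1 do not always agree with the z-scores; no criterion for assigning the tags was given.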 Further read-outs or replicates are left out here. Not given: the amount of reagent."}
{"gene":"CG17377","dsRNA":"DRSC00950","z-score, replicate 1":0.66}
{"gene":"CG17377","dsRNA":"DRSC02615","z-score, replicate 1":0.17}
{"gene":"CG17377","dsRNA":"DRSC21811","z-score, replicate 1":2.13}
{"gene":"CG18789","dsRNA":"DRSC02696","z-score, replicate 1":0.81}
{"gene":"Dus4","dsRNA":"DRSC02066","z-score, replicate 1":0.19}
{"gene":"CG31139","dsRNA":"DRSC21393","z-score, replicate 1":-0.38}
{"gene":"CG15177","dsRNA":"DRSC12557","z-score, replicate 1":0.28}
{"gene":"obst-E","dsRNA":"DRSC02128","z-score, replicate 1":0.13}
{"gene":"Cyp6v1","dsRNA":"DRSC20565","z-score, replicate 1":-0.41}
{"gene":"AIMP2","dsRNA":"DRSC09877","z-score, replicate 1":0.38}
{"gene":"Papss","dsRNA":"DRSC11246","z-score, replicate 1":0.39}
{"gene":"Mmp2","dsRNA":"DRSC06698","z-score, replicate 1":0.12}
{"gene":"Mmp2","dsRNA":"DRSC22024","z-score, replicate 1":0.89}
{"gene":"Alas","dsRNA":"DRSC04044","z-score, replicate 1":0.27}
{"gene":"Bsg","dsRNA":"DRSC01010","z-score, replicate 1":-1.41}
{"gene":"Bsg","dsRNA":"DRSC01011","z-score, replicate 1":-0.63}
{"gene":"CG18765","dsRNA":"DRSC15392","z-score, replicate 1":0.14}
{"gene":"bumpel","dsRNA":"DRSC16100","z-score, replicate 1":0.3}
{"gene":"mia","dsRNA":"DRSC12137","z-score, replicate 1":0.23}
{"gene":"Mgat4b","dsRNA":"DRSC10256","z-score, replicate 1":0.17}
{"gene":"Sec6","dsRNA":"DRSC06932","z-score, replicate 1":0.34}
{"gene":"Gr93c","dsRNA":"DRSC14587","z-score, replicate 1":0.29}
{"gene":"AQP","dsRNA":"DRSC06122","z-score, replicate 1":0.11}
{"gene":"CG14570","dsRNA":"DRSC11731","z-score, replicate 1":0.14}
{"gene":"CG33461","dsRNA":"DRSC22892","z-score, replicate 1":-0.4}
{"gene":"Crg-1","dsRNA":"DRSC22882","z-score, replicate 1":-0.64}
{"gene":"r","dsRNA":"DRSC19813","z-score, replicate 1":-0.55}
{"gene":"r","dsRNA":"DRSC19814","z-score, replicate 1":-0.53}
{"gene":"CG5039","dsRNA":"DRSC15703","z-score, replicate 1":0.3}
{"gene":"CG8563","dsRNA":"DRSC10996","z-score, replicate 1":0.28}
{"gene":"CG43317","dsRNA":"DRSC15000","z-score, replicate 1":0.17}
{"gene":"CG1791","dsRNA":"DRSC18141","z-score, replicate 1":0.53}
{"gene":"Kap-alpha3","dsRNA":"DRSC16976","z-score, replicate 1":0.06}
{"gene":"CG13144","dsRNA":"DRSC02241","z-score, replicate 1":0.21}
{"gene":"CG5087","dsRNA":"DRSC10479","z-score, replicate 1":0.03}
{"gene":"CG12268","dsRNA":"DRSC14491","z-score, replicate 1":0.4}
{"gene":"VGlut","dsRNA":"DRSC00733","z-score, replicate 1":0.54}
{"gene":"VGlut","dsRNA":"DRSC21821","z-score, replicate 1":-0.91}
{"gene":"CG33958","dsRNA":"DRSC06472","z-score, replicate 1":0.15}
{"gene":"CG33958","dsRNA":"DRSC06944","z-score, replicate 1":0.09}
